Measurements published in article PMC11957390.

Protein sequences, listed by entry. Tags and fused reporters are not part of them. Lines headed by an entry give the natural chain unless they say otherwise; changes in a name come on top.
UniProt Q9DHV4: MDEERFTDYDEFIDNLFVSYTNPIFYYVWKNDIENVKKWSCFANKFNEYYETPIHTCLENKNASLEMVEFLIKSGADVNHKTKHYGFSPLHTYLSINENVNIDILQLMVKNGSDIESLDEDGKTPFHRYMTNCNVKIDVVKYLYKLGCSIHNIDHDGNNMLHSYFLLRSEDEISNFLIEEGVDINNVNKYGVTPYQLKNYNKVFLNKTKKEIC

Columns and labels:
[1] = target: myc-EPTV169 (Eptesipox virus); assay: co-IP
[2] = target: myc-TPXV08 (Tanapox virus) (UniProt Q9DHV4); assay: co-IP

B1: human GFP-IFIT1 (protein, UniProt P09914 1-478)
chain: MSTNGDDHQVKDSLEQLRCHFTWELSIDDDEMPDLENRVLDQIEFLDTKYSVGIHNLLAYVKHLKGQNEEALKSLKEAENLMQEEHDNQANVRSLVTWGNFAWMYYHMGRLAEAQTYLDKVENICKKLSNPFRYRMECPEIDCEEGWALLKCGGKNYERAKACFEKVLEVDPENPESSAGYAISAYRLDGFKLATKNHKPFSLLPLRQAVRLNPDNGYIKVLLALKLQDEGQEAEGEKYIEEALANMSSQTYVFRYAAKFYRRKGSVDKALELLKKALQETPTSVLLHHQIGLCYKAQMIQIKEATKGQPRGQNREKLDKMIRSAIFHFESAVEKKPTFEVAHLDLARMYIEAGNHRKAEENFQKLLCMKPVVEETMQDIHFHYGRFQEFQKKSDVNAIIHYLKAIKIEQASLTRDKSINSLKKLVLRKLRRKALDLESLSLLGFVYKLEGNMNEALEYYERALRLAADFENSVRQGP
In the case of B1, the binding [1] is reported as “no binding” and the binding [2] is reported as “binds”.

These are yes or no findings as the source states them, for the method shown. In cells and extracts the contact can be indirect. For some assays here: Binding calls can cover weak binding; strength is not graded here. Sequences can lack the tags named with a protein.
